PubChem BioAssay AID652259, Drosophila RNAi Screening Center, 2013

Assay: 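Identify new Wingless signalling regulators in fly cells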 (primary screen)
Cell system: Drosophila clone 8 imaginal disc epithelial cells
Knock-down reagent: long dsRNA against Drosophila genes
Treatment: pathway stimulated by co-transfected Wingless expression plasmid
Measurement: 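Dual luciferase reads per well after Wingless plasmid stimulation: reporter firefly light and Renilla control light; activity is firefly divided by Renilla, a ratio not deposited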
Reading the numbers: firefly reporter light: higher = more Wg reporter light, before normalisation; Renilla control light: higher = more transfected or surviving cells
Rule for the call: 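Strong candidates differ from their plate mean by at least two out of four per-plate statistical tests; weak candidates meet just one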
Calls: active = candidate regulator (raises or lowers reporter); inactive = not a candidate
In all, the deposit lists about 22,000 reagents; this is a random part of those with a known target gene and a result. In the full data, 233 (1.1%) were called active. 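Light values are raw, unnormalised plate reads; the ratio scores behind the reporter calls were not deposited.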 Unmarked entries are inactive. Names joined by + are all predicted targets of the reagent. Not stated in the record: the amount of reagent, the time to read-out, the dose of the treatment.

gene | DRSC id | firefly reporter light, replicate 1 | firefly reporter light, replicate 2 | Renilla control light, replicate 1 | Renilla control light, replicate 2
TfIIEbeta (Transcription factor IIEbeta) | DRSC08701 | 13378 | – | 2970 | –
CG31528 | DRSC12003 | 1761 | – | 996 | –
CG4455 | DRSC01983 | 7083 | 9.14e5 | 2355 | 4.90e5
CG4455 | DRSC21684 | 4.28e5 | 4.60e5 | 2.66e5 | 1.89e5
CG43089 | DRSC08060 | 1845 | – | 1024 | –
CG12464 | DRSC06156 | 4560 | – | 2071 | –
MED7 (Mediator complex subunit 7) | DRSC16059 | 11380 | – | 2325 | –
Idgf4 (Imaginal disc growth factor 4) | DRSC18675 | 15042 | – | 8517 | –
por (porcupine) | DRSC20362 | 25831 | – | 11794 | –
rpr (reaper) | DRSC11390 | 6871 | – | 3232 | –
CG6015 | DRSC15948 | 7723 | 8794 | 1296 | 1448
CG33223 | DRSC17572 | 3088 | – | 741 | –
CR11386 + CR33222 | DRSC17781 | 15008 | – | 9233 | –
CG32214 | DRSC09613 | 4396 | – | 2130 | –
Gr22d (Gustatory receptor 22d) | DRSC21653 | 7.32e5 | 6.57e5 | 3.75e5 | 3.14e5
CG31266 | DRSC15747 | 15190 | – | 3625 | –
CG32847 | DRSC22901 | 4.33e5 | 3.90e5 | 1.90e5 | 1.28e5
MED18 (Mediator complex subunit 18) | DRSC18549 | 20188 | – | 11814 | –
CG18428 | DRSC15326 | 17235 | – | 13424 | –
pip (pipe) | DRSC11382 | 10417 | – | 4374 | –
Git (G protein-coupled receptor kinase interacting ArfGAP) | DRSC06620 | 7842 | – | 2307 | –
CG9689 | DRSC18440 | 2971 | 5996 | 685 | 1495
CG6484 | DRSC06991 | 13034 | – | 3509 | –
Klp61F (Kinesin-like protein at 61F) | DRSC08671 | 5569 | – | 1202 | –
Lint-1 + rtv | DRSC19541 | 2544 | 7660 | 978 | 2658
CG17361 | DRSC10266 | 6099 | – | 1869 | –
Ubi-p63E (Ubiquitin-63E) | DRSC22016 | 7.59e5 | 7.72e5 | 2.98e5 | 3.11e5
Ste:CG33238 + Ste:CG33241 + Ste:CG33236 + 11 more | DRSC19004 | 4182 | – | 1104 | –
Ste:CG33238 + Ste:CG33241 + Ste:CG33236 + 11 more | DRSC21260 | 13377 | – | 7017 | –

Laid out differently: entries from further up.
gene,DRSC id,"firefly reporter light, replicate 1","firefly reporter light, replicate 2","Renilla control light, replicate 1","Renilla control light, replicate 2"
CG32847,DRSC22901,4.33e5,3.90e5,1.90e5,1.28e5
MED18 (Mediator complex subunit 18),DRSC18549,20188,,11814,
CG18428,DRSC15326,17235,,13424,
